Source: patent US20160046678A1 (ZYNGENIA, published 2016)
These are yes or no findings as the source states them, for the method shown. Some entries that bind do so weakly or less than the wild type.

Target: EGFR (UniProt P00533)
Assay: peptide screen, Example 48

Row | binding | Binder
1 | binds | LPQGCWWAVWGKECHLLP [EGA805]
2 | binds | YEEHCWLFPSDWICSLRQ [EGA802]
3 | binds | HPDDCWWALWGRECLLLP [EGA809]
4 | binds | YREHCSLFPNDWICTLMP [EGA799]
5 | binds | LTAPCYWTTWGKECLLLR [EGA819]
6 | binds | LYDTCYWTTWGKECLMPR [EGA806]
7 | binds | LTYVCWWNMWGYECLPYE [EGA813]
8 | binds | HPDNCWWAVWGRECLLLP [EGA817]
9 | binds | LIAPCYWTIWGKECFILD [EGA816]
10 | binds | LPEGCWWALWGRECLLLP [EGA811]
11 | binds | QSPGCWWAVWGVECILLP [EGA823]
12 | binds | LRDPCWWAVWGRECILLP [EGA822]
13 | binds | LPEGCWWAPWGKECLLSP [EGA830]
14 | binds | LLDACWWATWGKECIWRN [EGA812]
15 | binds | LAEGCIWTTWGRECFLLP [EGA820]
16 | binds | LPDGCYWTVWGRECFLPP [EGA821]
17 | binds | LPEPCWWAPWGRECLLLP [EGA804]
18 | binds | LPGGCWWAVWGRECQLLP [EGA808]
19 | binds | LTDPCYWTTWGKECLLHR [EGA828]
20 | binds | LPAPCYWTTWGKECFIVP [EGA815]
21 | binds | KCNFNPWKAACG [EGA810]
22 | binds | IHEGCWWSSWGKECLLLP [EGA824]
23 | binds | YAEHCSLFPTDWICSLMP [EGA801]
24 | binds | LPEGCWWATWGRECLLEP [EGA825]
25 | binds | LPDGCWWAQWGRECLLKP [EGA814]
26 | binds | LPAGCYWANWGKECFLVP [EGA826]
27 | binds | LPDGCTWMVWGRECFLLP [EGA807]
28 | binds | LSDPCYWTTWGKECFLLR [EGA818]

Second part, the binder before the results:

Row | Binder | binding
29 | YAEHCFQFPHDWICSLMT [EGA779] | binds
30 | YAEHCLQFPADWICTLRT [EGA773] | binds
31 | YAEHCWLFPKDWICTLIT [EGA763] | binds
32 | YEEHCWQFPGDWICSLRG [EGA764] | binds
33 | YAGHCALFPSDWICSLLP [EGA774] | binds
34 | YAEHCRQFPADWICTLMT [EGA792] | binds
35 | YAEHCRLFPGDWICTLST [EGA781] | binds
36 | YQEHCWRFPNDWICSLLP [EGA780] | binds
37 | YAEHCSHFWTDWICTLST [EGA767] | binds
38 | YLQHCLLFPTDWICTLLP [EGA760] | binds
39 | YADHCRLFPTDWICTLVT [EGA790] | binds
40 | YVEHCRLFPCDWICSLMI [EGA777] | binds
41 | YAEHCSYFPTDWICTLRT [EGA775] | binds
42 | YPEHCWQFPGDWICTLLT [EGA789] | binds
43 | YGEHCRSFPTDWICTLLP [EGA749] | binds
44 | YAEHCRIFPTDWICTLST [EGA765] | binds
45 | YAEHCTLFPTDWICTLLP [EGA761] | binds
46 | YAEHCWQFPSDWICSLIE [EGA766] | binds
47 | YAEHCWRFPGDWICSLIT [EGA757] | binds
48 | YVEHCWQFPSDWICTLLP [EGA755] | binds
49 | YAEHCWHFPTDWICSLLP [EGA751] | binds

Row | Binder | binding
50 | YAEHCWMFPTDWICSLRS [EGA762] | binds
51 | YSTHCRLFPTDWICTLEG [EGA750] | binds
52 | YAEHCRLFPTDWICTIKS [EGA753] | binds
53 | YAEHCWMFPTDWICSLNR [EGA788] | binds
54 | YAEHCRLFPSDWICSLVT [EGA791] | binds
55 | YAEHCSMFPSDWICSLMT [EGA782] | binds
56 | YAEHCRQFPSDWICTLLS [EGA768] | binds
57 | YAAHCSLFPTDWICTLMP [EGA769] | binds
58 | YFEHCRQFPTDWICTLMP [EGA752] | binds
59 | YAEHCSFFPADWICTLIP [EGA786] | binds
60 | YSEHCWMFPSDWICTLME [EGA793] | binds
61 | YAEHCWQFPADWICTLLP [EGA798] | binds
62 | YAEHCNMFPTDWICTLME [EGA785] | binds
63 | YAEHCGLFPGDWICTLKN [EGA784] | binds
64 | YAEHCWLFPKDWICTLDM [EGA770] | binds
65 | YAEHCSQFPTDWICTLLT [EGA795] | binds
66 | YAEHCRLFPTDWICSLRE [EGA758] | binds
67 | YAEHCWHFPTDWICTLRS [EGA783] | binds
68 | YAEHCSMFPTDWICTLVT [EGA759] | binds
69 | YLDHCRLFPTDWICSLLP [EGA776] | binds
70 | LAEHCYLFPCDWICSLLT [EGA796] | binds
